Values joined by “and” are separate entries in the source; they are usually repeats but may differ in a detail not shown here. Equal entries are not always repeated. The list shows a part of the results. The main result of the screen is listed elsewhere. These columns were measured beside it and carry no call. Compounds called inactive in the main read-out are mostly missing here. Words in brackets tell the shape of the fitted curve; partial curves, single points and poor fits give uncertain potencies.

In PubChem BioAssay AID662 (National Center for Advancing Translational Sciences (NCATS), 2007) one finds AC50 data, which are given here for 40 compounds.

A short description of this assay: Cell signaling CRE-BLA (Fsk stim). As to conditions: CHO CRE-bla reporter (cAMP response element driving beta-lactamase), forskolin EC10, beta-lactamase ratio; measured here: 460 nm blue channel. A digest of the protocol: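 CRE-bla CHO reporter cells treated with compound titration plus EC10 NKH 477 (water-soluble forskolin), incubated 3 h at 37 °C; CCF4 loading 2 h at room temperature, 460/530 nm emission ratio read, AC50 values derived for positive or negative modulators.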
Turning to `Cc1noc(C)c1C(=O)N1CCC[C@@]2(CCN(CC(C)C)C2)C1`, the AC50 (as a rule, the concentration at which the activity in the assay is half-maximal) is 5.01 µM [falling, single point].

With `Cc1nc2ccc(Cl)cn2c1P(=S)(N1CCOCC1)N1CCOCC1`, the AC50 is 0.794 µM [falling, full curve, poor fit].

Regarding `Cn1ccnc1P(=S)(c1nccn1C)c1nccn1C`, the AC50 is 0.126 µM [falling, single point].

Consider `C=CCn1c(O)c(C(C)=NCc2cccnc2)c(=O)[nH]c1=O`, for which the AC50 is 0.631 µM [falling, partial curve].

Take `C#CCN(C)[C@H](C)Cc1ccccc1`: the AC50 was 31.6 µM [falling, single point].

`CC1=CC(C)C(COC(N)=O)(COC(N)=O)C(C)C1` (stereo not given): the concentration at half-maximal activity (AC50) was 12.6 µM [rising, single point].

As for `O=C1CC(N2CCC(n3c(=O)[nH]c4ccccc43)CC2)C(=O)N1Cc1ccccc1` (stereo not given), the AC50 was 5.01 µM [falling, single point].

For the compound `Cc1cccc(-n2c(C)nc3cc(C(=O)N4CCC5(CC4)OCCO5)ccc32)c1`, the AC50 was 7.94 µM [rising, partial curve].

`N[C@H](Cc1ccc2oc3cc(=O)c4ccccc4c-3nc2c1)C(=O)O`: the AC50 was 0.794 µM [falling, single point].

In the case of `CN1[C@@H]2CC[C@H]1CC(OC(c1ccc(F)cc1)c1ccc(F)cc1)C2` (stereo not given in full), the AC50 was 31.6 µM [falling, partial curve, poor fit].

For `O=C(CN1CC=C(c2ccccc2)CC1)NC(=O)NCc1ccco1`, the AC50 was 12.6 µM [rising, partial curve].

Turning to `O=C(CCCN1CCC2(CC1)C(=O)N(Cc1cccc(F)c1)CN2c1ccccc1)c1ccc(F)cc1`, the AC50 was 0.316 µM [rising, full curve].

For `CN1C(=O)N(C)C(=O)C(CCc2ccncc2)(Cc2ccc3c(c2)OCO3)C1=O`, the AC50 was 0.00794 µM [falling, full curve].

Take `O=C1CN(C(=O)CN2CCCCC2)C(c2ccccc2)c2cc(Br)ccc2N1` (stereo not given): the AC50 was 7.94 µM [rising, partial curve].

Regarding `COc1ccc(Nc2ncc(C(=O)N3CCC4(CC3)OCCO4)c3ccccc23)cc1`, the AC50 was 5.01 µM [falling, single point].

On to `NC[C@H](CS(=O)(=O)O)c1ccc(Cl)cc1`, for which the AC50 is 31.6 µM [falling, single point].

For the compound `COC(=O)Nc1cccc(OC(=O)Nc2cccc(C)c2)c1`, the AC50 was 1 µM [falling, full curve, poor fit].

On to `CCCC/C=C/[C@@H](NP(=O)(c1ccccc1)c1ccccc1)c1ccccc1OC`, for which the AC50 is 25.1 µM [falling, single point].

In the case of `O=C(c1cc2c(s1)CCCC2)N1CCC2(CC1)OCCO2`, the AC50 is 10 µM [falling, partial curve].

Consider `Oc1ccc2c3c1O[C@H]1c4oc5ccccc5c4C[C@]4(O)[C@H](C2)N(CC2CC2)CC[C@@]314`, for which the AC50 was 31.6 µM [falling, single point].

Take `COC(=O)CSC1=NP(=S)(SCC(=O)OC)N2CCCC2=C1C#N` (stereo not given): the AC50 was 0.0631 µM [falling, full curve].

For `NCCc1c[nH]c2ccc(C(N)=O)cc12`, the AC50 is 31.6 µM [falling, partial curve, poor fit].

Take `Oc1c(Cl)c(Cl)c(Cl)c(Cl)c1Cl` (tested in a mixture with another compound): the AC50 was 3.16 µM [rising, single point].

Turning to `CC(C)[C@]1(NC(=O)[C@H]2C=C3c4cccc5[nH]cc(c45)C[C@H]3N(C)C2)O[C@@]2(O)[C@H]3CCCN3C(=O)[C@H](Cc3ccccc3)N2C1=O`, the AC50 was 7.94 µM [rising, partial curve, poor fit].

Regarding `C=C1[C@@H](O)C2C=CC[C@H](C)C(=O)[C@@](C)(O)C=C[C@@H](OC(C)=O)[C@@]23C(=O)N[C@H](Cc2ccccc2)[C@@H]3[C@@H]1C` (stereo not given in full), the AC50 was 25.1 µM [rising, partial curve, poor fit].

For the compound `N#C/C(=C\c1ccc(O)c(O)c1)C(N)=S`, the AC50 is 25.1 µM [falling, partial curve] and 20 µM [falling, partial curve, poor fit].

For the compound `O=C1C2(Cl)C3(Cl)C4(Cl)C(Cl)(Cl)C5(Cl)C3(Cl)C1(Cl)C5(Cl)C24Cl` (stereo not given), the AC50 is 15.8 µM [falling, partial curve] and 12.6 µM [falling, partial curve, poor fit].

Turning to `CCN(CC)c1ccc(N=Cc2c(O)n(CCC3=CCCCC3)c(=O)[nH]c2=O)cc1`, the AC50 was 0.158 µM [rising, full curve].

Regarding `N#C/C=C/C#N`, the AC50 was 25.1 µM [falling, single point].

Take `O=C(CNS(=O)(=O)c1ccc(Br)s1)N1CCC2(CC1)OCCO2`: the AC50 was 0.0126 µM [falling, full curve, poor fit].

On to `O=C(NC1(C(F)(F)F)Oc2ccccc2O1)N1CCC2(CC1)OCCO2`, for which the AC50 is 5.01 µM [falling, full curve, poor fit].

With `O=C1C2CCN(CC2)C1(CO)CO`, the AC50 is 25.1 µM [falling, partial curve, poor fit].

For `CCCCn1c(O)c(C(C)=Nc2ccc(OCC)cc2)c(=O)[nH]c1=O`, the AC50 is 15.8 µM [rising, single point].

Turning to `CCCCn1c(O)c(C(C)=NC(Cc2c[nH]c3ccccc23)C(=O)OC)c(=O)[nH]c1=O` (stereo not given), the AC50 is 3.16 µM [falling, full curve].

For `O=C1C(Cl)=C(Cl)C(=O)C(Cl)=C1Cl`, the AC50 was 25.1 µM [rising, single point].

Regarding `CCOc1cc(-c2nc3c(C)cccn3c2NCC2CCCO2)ccc1O` (stereo not given), the AC50 is 12.6 µM [rising, partial curve].

In the case of `CCOC(=O)c1c(N)n(Cc2ccc(OC)cc2)c2nc3ccccc3nc12`, the AC50 is 10 µM [rising, partial curve].

As for `COc1cc2c(cc1OC)-c1c(OC)c(OC)cc3c1C(C2)N(C)CC3` (stereo not given), the AC50 is 10 µM [rising, partial curve].

For the compound `CC1(C)CC(=O)C(C2(O)C(=O)NC(=O)NC2=O)=C(O)C1`, the AC50 is 2.51 µM [falling, partial curve, poor fit].

As to `CCC(=O)O[C@H]1CC[C@H]2[C@@H]3CCC4=CC(=O)CC[C@]4(C)[C@H]3CC[C@]12C`, the AC50 was 12.6 µM [rising, single point].
